Source: PubChem BioAssay AID1508588 (Peter MacCallum Cancer Centre, 2020)
The whole screen tested about 18,000 reagents; this is an unselected part. Of all reagents, 790 (4.4%) were called active. 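Calls rest on a combination of fold-change classes in drug and vehicle arms, not all shown here.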 Entries without a mark were called inactive. The numbers tell different reagents against one gene apart.

Test: 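Which gene losses make BRAF-mutant melanoma cells more responsive to vemurafenib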 (primary screen)
Cell system: human WM266.4 melanoma cells (BRAF V600 mutant)
Reagents: siRNA pool against human genes, 40 nM
Timing: 96 h from transfection to read-out
Challenge: vemurafenib 300 nM (about IC25), added 48 h after transfection, for 48 h; comparison arm got DMSO vehicle only
Read-out: 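Cell gain (DAPI nuclei at end minus before drug, mean of two replicates) and medium lactate by absorbance per cell, both as ratio to non-targeting siRNA, also grouped into fold-change classes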
Direction: cell gain with vemurafenib: higher = more cell gain than with non-targeting siRNA; lactate per cell with vemurafenib: higher = more lactate made per cell
Active means: 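a knock-down counts as enhancing when its fold-change classes with vehicle and with vemurafenib, taken together, show a stronger drug effect on cell gain or lactate per cell; exact class pairs not stated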
Meaning of the calls: active = enhances vemurafenib effect; inactive = no enhancement seen

target | reagent no. | cell gain with vemurafenib | lactate per cell with vemurafenib
CALHM1 (calcium homeostasis modulator 1) | 1 | 0.49 | 1.3
VAX1 (ventral anterior homeobox 1) | 1 | 0.87 | 1.1
OR4X2 (olfactory receptor family 4 subfamily X member 2) | 1 | 0.64 | 1.36
FAF1 (Fas associated factor 1) | 1 | 0.77 | 0.68
BTBD1 (BTB domain containing 1) | 1 | 0.45 (active) | 0.35
GPS1 (G protein pathway suppressor 1) | 1 | 0.11 | 1.73
COPRS (coordinator of PRMT5 and differentiation stimulator) | 1 | 1.05 | 0.4
MSR1 (macrophage scavenger receptor 1) | 1 | 0.85 | 1.28
COX6B2 (cytochrome c oxidase subunit 6B2) | 1 | 0.75 | 1.4
MS4A2 (membrane spanning 4-domains A2) | 1 | 0.19 | 1.1
RRS1 (regulator of ribosome synthesis 1) | 1 | 0.19 | 1.99
OR5A1 (olfactory receptor family 5 subfamily A member 1) | 1 | 0.87 | 0.76
GCK (glucokinase) | 1 | -0.01 (active) | 0.3
POPDC1 (popeye domain cAMP effector 1) | 1 | 0.89 | 0.63
OTULINL (OTU deubiquitinase with linear linkage specificity like) | 1 | 0.69 | 0.8
RFC5 (replication factor C subunit 5) | 1 | 0.67 | 0.9
SLC39A12 | 1 | 0.61 | 0.82
ZNF703 (zinc finger protein 703) | 1 | 0.62 | 0.94
CTH (cystathionine gamma-lyase) | 1 | 0.8 | 0.5
ALDOC (aldolase, fructose-bisphosphate C) | 1 | 0.27 | 1.52
ZNHIT2 (zinc finger HIT-type containing 2) | 1 | 0.61 | 1.09
C6orf163 (chromosome 6 open reading frame 163) | 1 | 0.42 (active) | -0.03
ENDOV (endonuclease V) | 1 | 1.4 | 0.49
MAP2K1 (mitogen-activated protein kinase kinase 1) | 1 | 0.88 | 0.68
FOXM1 (forkhead box M1) | 1 | 0.39 | 1
OR5H14 (olfactory receptor family 5 subfamily H member 14) | 1 | 0.33 | 1.08
GRM1 (glutamate metabotropic receptor 1) | 1 | 0.57 | 0.66
LRBA (LPS responsive beige-like anchor protein) | 1 | 0.8 | 0.8
C14orf181 (retired record) | 1 | 0.13 | 2.12
BROX (BRO1 domain and CAAX motif containing) | 1 | 0.54 | 1.69
MYO18B (myosin XVIIIB) | 1 | 0.78 | 0.64
TMUB1 (transmembrane and ubiquitin like domain containing 1) | 1 | 0.37 | 1.08
PSMD5 (proteasome 26S subunit, non-ATPase 5) | 1 | 0.81 | 0.79
CERS5 (ceramide synthase 5) | 1 | 0.94 | 0.59
ELK1 (ETS transcription factor ELK1) | 1 | 0.1 | 2.27
POP7 (POP7 ribonuclease P/MRP subunit) | 1 | 0.88 | 0.94
PRDM15 (PR/SET domain 15) | 1 | 0.52 | 1.72
FOXI1 (forkhead box I1) | 1 | 0.88 | 0.88
AUH (AU RNA binding methylglutaconyl-CoA hydratase) | 1 | 0.59 | 0.96
DCTN2 (dynactin subunit 2) | 1 | 0.63 | 0.6
KRTAP13-3 (keratin associated protein 13-3) | 1 | 0.85 | 0.88
GRPEL1 (GrpE like 1, mitochondrial) | 1 | 0.76 | 0.85
C12orf76 (chromosome 12 open reading frame 76) | 1 | 0.24 | 1.8

The list goes on; the last 11 above are carried over.
target | reagent no. | cell gain with vemurafenib | lactate per cell with vemurafenib
PSMD5 (proteasome 26S subunit, non-ATPase 5) | 1 | 0.81 | 0.79
CERS5 (ceramide synthase 5) | 1 | 0.94 | 0.59
ELK1 (ETS transcription factor ELK1) | 1 | 0.1 | 2.27
POP7 (POP7 ribonuclease P/MRP subunit) | 1 | 0.88 | 0.94
PRDM15 (PR/SET domain 15) | 1 | 0.52 | 1.72
FOXI1 (forkhead box I1) | 1 | 0.88 | 0.88
AUH (AU RNA binding methylglutaconyl-CoA hydratase) | 1 | 0.59 | 0.96
DCTN2 (dynactin subunit 2) | 1 | 0.63 | 0.6
KRTAP13-3 (keratin associated protein 13-3) | 1 | 0.85 | 0.88
GRPEL1 (GrpE like 1, mitochondrial) | 1 | 0.76 | 0.85
C12orf76 (chromosome 12 open reading frame 76) | 1 | 0.24 | 1.8
CHRNA4 (cholinergic receptor nicotinic alpha 4 subunit) | 1 | 0.57 | 1.11
CTDSPL (CTD small phosphatase like) | 1 | 0.73 | 1.6
LBX1 (ladybird homeobox 1) | 1 | 0.62 | 1.56
EPS15 (epidermal growth factor receptor pathway substrate 15) | 1 | 0.57 | 1.36
TRIM16 (tripartite motif containing 16) | 1 | 0.32 (active) | 0.48
ZNF7 (zinc finger protein 7) | 1 | 1.04 | 0.88
NUP214 (nucleoporin 214) | 1 | 0.69 | 0.54
AGT (angiotensinogen) | 1 | 0.44 | 1.23
CKS2 (CDC28 protein kinase regulatory subunit 2) | 1 | 1.06 | 0.96
ADGRD1 (adhesion G protein-coupled receptor D1) | 1 | 0.5 | 1.72
TOP2A (DNA topoisomerase II alpha) | 1 | 0.34 | 1.05
PRDX1 (peroxiredoxin 1) | 1 | 0.54 | 1.32
COBL (cordon-bleu WH2 repeat protein) | 1 | 0.24 | 1.77
SNRPD3 (small nuclear ribonucleoprotein D3 polypeptide) | 1 | 0.23 | 1.84
STRC (stereocilin) | 1 | 0.16 (active) | 1.08
OR13H1 (olfactory receptor family 13 subfamily H member 1) | 1 | 0.43 | 1.86
SYNGR2 (synaptogyrin 2) | 1 | 0.44 | 0.8
FAM168A (family with sequence similarity 168 member A) | 1 | 0.16 | 1.27
SMIM7 (small integral membrane protein 7) | 1 | 0.54 | 1.67
ARL2 (ARF like GTPase 2) | 1 | 0.55 | 1.79
SLC14A1 | 1 | 0.76 (active) | 0.7
GEN1 (GEN1 structure-specific endonuclease) | 1 | 1.01 | 0.46
FCSK (fucose kinase) | 1 | 0.33 | 1.21
PPP1CA (protein phosphatase 1 catalytic subunit alpha) | 1 | 0.58 | 0.52
ELAVL2 (ELAV like RNA binding protein 2) | 1 | 0.76 | 0.55
CACNA1I (calcium voltage-gated channel subunit alpha1 I) | 1 | 0.62 | 0.43
KDSR (3-ketodihydrosphingosine reductase) | 1 | 1.05 | 0.76
FAM76A (family with sequence similarity 76 member A) | 1 | 0.56 | 0.94
SMCR8 (SMCR8-C9orf72 complex subunit) | 1 | 0.53 | 1.34
SLC25A41 | 1 | -0.19 | 1.57
ATP1B4 (ATPase Na+/K+ transporting family member beta 4) | 1 | 0.88 | 0.53
TRIM4 (tripartite motif containing 4) | 1 | 0.78 | 0.94
CT45A3 (cancer/testis antigen family 45 member A3) | 1 | 0.39 | 1.14
CT45A3 (cancer/testis antigen family 45 member A3) | 2 | 0.41 | 1
PRPF39 (pre-mRNA processing factor 39) | 1 | 0.91 | 0.8
ANKEF1 (ankyrin repeat and EF-hand domain containing 1) | 1 | 0.3 | 1.04
ST13 (ST13 Hsp70 interacting protein) | 1 | 0.75 | 0.79
LTAP1 (lipid transport auxiliary protein 1) | 1 | 0.07 | 2.17
NOSIP (nitric oxide synthase interacting protein) | 1 | 0.48 | 1.22
KRTAP20-2 (keratin associated protein 20-2) | 1 | 0.51 | 1.45
SF3B4 (splicing factor 3b subunit 4) | 1 | 0.05 | 1.23
